{"source": "patent US9914874B2", "about": "“Composite nanoparticles including a malonic acid derivative” (3M INNOVATIVE PROPERTIES COMPANY, priority 2013, dated 2018)", "assay": "Quantum yield of green InP nanocrystals with sample ligand, Method 1 (toluene, Stock Solution 1), Quantaurus integrating sphere", "conditions": "ratio to Reference 1 (DDSA ligand), 15 mg ligand in toluene, 90° C. 1.5 hours, excitation 440 nm", "data": [{"smiles": "CC(CC=C(C(=O)O)C(=O)O)CC(C)(C)C", "note": "(stereo not shown) [Example 3, 2-(3,5,5-Trimethylhexylidene)propanedioic Acid]", "values": [{"measurement": "Quantum Yield (QY) relative to DDSA reference", "value": 0.86}]}]}
